In the supplement of paper PMC7661543:
± gives the standard deviation of the averaged measurements. The effect of the compound repeats well; differences between the knockouts mostly do not.

Tested on: SKBR3
Experiment: relative cell number vs DMSO control (72 h) (% of DMSO); higher = less growth inhibition (more cells)
Experimental: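 QMAP-Seq: a pool of 5 breast cancer cell lines (ZR-75-1, SKBR3, HCC-38, MDA-MB-231, BT-20), each carrying 12 doxycycline-inducible Cas9 sgRNA perturbations (11 knockouts plus non-targeting sgNT), was treated with compounds for 72 h at four 10-fold doses (10 nM-10 uM or 1 nM-1 uM range). Barcodes were amplified and sequenced, and cell number was interpolated from 293T spike-in standard curves. The result is expressed as % of the median of DMSO wells. Two biological replicates.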

[1] = sgRNA knockout: sgATF3, 1000 nM
[2] = sgRNA knockout: sgATF3, 10000 nM
[3] = sgRNA knockout: sgATF4, 1000 nM
[4] = sgRNA knockout: sgATF4, 10000 nM
[5] = sgRNA knockout: sgATF6, 1000 nM
[6] = sgRNA knockout: sgATF6, 10000 nM
[7] = sgRNA knockout: sgATG7, 1000 nM
[8] = sgRNA knockout: sgATG7, 10000 nM
[9] = sgRNA knockout: sgERN1, 1000 nM
[10] = sgRNA knockout: sgERN1, 10000 nM
[11] = sgRNA knockout: sgHSF1, 1000 nM
[12] = sgRNA knockout: sgHSF1, 10000 nM
[13] = sgRNA knockout: sgHSF2, 1000 nM
[14] = sgRNA knockout: sgHSF2, 10000 nM
[15] = sgRNA knockout: sgKEAP1, 100 nM
[16] = sgRNA knockout: sgKEAP1, 1000 nM
[17] = sgRNA knockout: sgKEAP1, 10000 nM
[18] = sgRNA knockout: sgNFE2L2, 10 nM
[19] = sgRNA knockout: sgNFE2L2, 100 nM
[20] = sgRNA knockout: sgNFE2L2, 1000 nM
[21] = sgRNA knockout: sgNFE2L2, 10000 nM
[22] = sgRNA knockout: sgSLC35F2, 10 nM
[23] = sgRNA knockout: sgSLC35F2, 100 nM
[24] = sgRNA knockout: sgSLC35F2, 1000 nM
[25] = sgRNA knockout: sgSLC35F2, 10000 nM
[26] = sgRNA knockout: sgXBP1, 1000 nM
[27] = sgRNA knockout: sgXBP1, 10000 nM

`CC(C)n1cnc2c(NCCc3ccc(O)cc3)nc(-c3csc4ccccc34)nc21` [StemRegenin1] showed a relative cell number (sgRNA knockout: sgATF3, 10 nM) of 108 ± 36, a relative cell number (sgRNA knockout: sgATF3, 100 nM) of 112 ± 21 and a relative cell number [1] of 95.9 ± 20. For the same compound, the relative cell number [2] was 48 ± 7.2, the relative cell number (sgRNA knockout: sgATF4, 10 nM) was 80.1 ± 2.3 and the relative cell number (sgRNA knockout: sgATF4, 100 nM) was 96.1 ± 7.6. It also gave a relative cell number [3] of 100 ± 12, a relative cell number [4] of 37.9 ± 3 and a relative cell number (sgRNA knockout: sgATF6, 10 nM) of 74.8 ± 7.6. For the same compound, the relative cell number (sgRNA knockout: sgATF6, 100 nM) was 105 ± 27, the relative cell number [5] was 94.7 ± 27 and the relative cell number [6] was 42.4 ± 8.3. The relative cell number (sgRNA knockout: sgATG7, 10 nM) was 72.8 ± 3.5, the relative cell number (sgRNA knockout: sgATG7, 100 nM) was 106 ± 4.5 and the relative cell number [7] was 80 ± 9.9. The relative cell number [8] was 44.3 ± 4.4, the relative cell number (sgRNA knockout: sgERN1, 10 nM) was 88.9 ± 6.8 and the relative cell number (sgRNA knockout: sgERN1, 100 nM) was 99.4 ± 4. The relative cell number [9] was 78.3 ± 12, the relative cell number [10] was 42.9 ± 16 and the relative cell number (sgRNA knockout: sgHSF1, 10 nM) was 69.9 ± 9.6. For the same compound, the relative cell number (sgRNA knockout: sgHSF1, 100 nM) was 99.5 ± 15, the relative cell number [11] was 94.5 ± 1.1 and the relative cell number [12] was 41 ± 4.8. For the same compound, the relative cell number (sgRNA knockout: sgHSF2, 10 nM) was 76.8 ± 14, the relative cell number (sgRNA knockout: sgHSF2, 100 nM) was 89.6 ± 13 and the relative cell number [13] was 103 ± 26. It also gave a relative cell number [14] of 38.6 ± 11, a relative cell number (sgRNA knockout: sgKEAP1, 10 nM) of 81.5 ± 7.8 and a relative cell number [15] of 105 ± 1.1. It also gave a relative cell number [16] of 94.6 ± 23, a relative cell number [17] of 43 ± 3.2 and a relative cell number [18] of 73.2 ± 30. For the same compound, the relative cell number [19] was 96.9 ± 16, the relative cell number [20] was 97.5 ± 7.2 and the relative cell number [21] was 42.4 ± 15. It also gave a relative cell number [22] of 78.8 ± 15, a relative cell number [23] of 77 ± 16 and a relative cell number [24] of 69.2 ± 28. The relative cell number [25] was 37.1 ± 2.3, the relative cell number (sgRNA knockout: sgXBP1, 10 nM) was 88.1 ± 32 and the relative cell number (sgRNA knockout: sgXBP1, 100 nM) was 97.3 ± 15. For the same compound, the relative cell number [26] was 100 ± 31 and the relative cell number [27] was 36.9 ± 6.6.

In the case of `Cc1[nH]c(/C=C2\C(=O)Nc3ccc(S(=O)(=O)N(C)c4cccc(Cl)c4)cc32)c(C)c1C(=O)N1CCN(C)CC1`, the relative cell number (sgRNA knockout: sgATF3, 10 nM) is reported as 126 ± 3.2, the relative cell number (sgRNA knockout: sgATF3, 100 nM) is reported as 85 ± 36 and the relative cell number [1] is reported as 59.7 ± 2.5. It also gave a relative cell number [2] of 71.7 ± 16, a relative cell number (sgRNA knockout: sgATF4, 10 nM) of 90.4 ± 16 and a relative cell number (sgRNA knockout: sgATF4, 100 nM) of 100 ± 6.3. For the same compound, the relative cell number [3] was 84.6 ± 2.6, the relative cell number [4] was 50.5 ± 2.1 and the relative cell number (sgRNA knockout: sgATF6, 10 nM) was 87.6 ± 6.2. It also gave a relative cell number (sgRNA knockout: sgATF6, 100 nM) of 89.39 ± 0.47, a relative cell number [5] of 71 ± 15 and a relative cell number [6] of 56.8 ± 1.4. It also gave a relative cell number (sgRNA knockout: sgATG7, 10 nM) of 80.4 ± 24, a relative cell number (sgRNA knockout: sgATG7, 100 nM) of 106 ± 9.4 and a relative cell number [7] of 78.2 ± 25. It also gave a relative cell number [8] of 72.8 ± 22, a relative cell number (sgRNA knockout: sgERN1, 10 nM) of 109 ± 55 and a relative cell number (sgRNA knockout: sgERN1, 100 nM) of 86.7 ± 9.4. It also gave a relative cell number [9] of 85.8 ± 1.5, a relative cell number [10] of 47 ± 18 and a relative cell number (sgRNA knockout: sgHSF1, 10 nM) of 75.1 ± 3. The relative cell number (sgRNA knockout: sgHSF1, 100 nM) was 85.7 ± 13, the relative cell number [11] was 71.3 ± 9.4 and the relative cell number [12] was 67.2 ± 26. The relative cell number (sgRNA knockout: sgHSF2, 10 nM) was 98 ± 10, the relative cell number (sgRNA knockout: sgHSF2, 100 nM) was 99.5 ± 3.1 and the relative cell number [13] was 73 ± 17. For the same compound, the relative cell number [14] was 59.2 ± 2.1, the relative cell number (sgRNA knockout: sgKEAP1, 10 nM) was 95.5 ± 5.1 and the relative cell number [15] was 86.9 ± 14. It also gave a relative cell number [16] of 83.8 ± 2.8, a relative cell number [17] of 56.1 ± 3.4 and a relative cell number [18] of 98.6 ± 4.9. For the same compound, the relative cell number [19] was 88.9 ± 6.7, the relative cell number [20] was 77.4 ± 21 and the relative cell number [21] was 55.8 ± 5.3. It also gave a relative cell number [22] of 115 ± 23, a relative cell number [23] of 93.2 ± 15 and a relative cell number [24] of 73.3 ± 24. For the same compound, the relative cell number [25] was 66.3 ± 25, the relative cell number (sgRNA knockout: sgXBP1, 10 nM) was 84.6 ± 44 and the relative cell number (sgRNA knockout: sgXBP1, 100 nM) was 69.4 ± 11. For the same compound, the relative cell number [26] was 80.1 ± 14 and the relative cell number [27] was 69.1 ± 24.
